Assay results: doi:10.1101/2023.09.20.558697
Weaker means in comparison with the reference protein, sequence or condition of that experiment. Protein sequences can lack the tags named with them.

Molecular target: T1, RokL6-His6 (Streptomyces coelicolor A3(2) M145) (UniProt Q9L112)
T1 sequence (looked up): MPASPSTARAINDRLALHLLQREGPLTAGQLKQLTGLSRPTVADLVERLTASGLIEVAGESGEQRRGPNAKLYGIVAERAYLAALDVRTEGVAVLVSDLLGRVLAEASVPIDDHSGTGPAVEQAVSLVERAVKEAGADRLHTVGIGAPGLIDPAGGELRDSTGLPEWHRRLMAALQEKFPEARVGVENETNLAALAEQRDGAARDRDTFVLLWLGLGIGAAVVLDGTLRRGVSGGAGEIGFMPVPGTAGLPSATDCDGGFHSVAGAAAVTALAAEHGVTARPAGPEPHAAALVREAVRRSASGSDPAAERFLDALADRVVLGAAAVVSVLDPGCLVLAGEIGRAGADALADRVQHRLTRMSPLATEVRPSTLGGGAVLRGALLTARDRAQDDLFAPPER
Assay: EMSA
Conditions: 0.1-0.5 uM RokL6-His6; residues 1-399

Sequence: CGCACCGGTAATCCACTATCGAATTCGCAGGCTCCCTGATAGTTTACGCCGCGGATTGAC (double strand) [RokL6-M1]
- binding result: binds more weakly

Sequence: CGCACCGGTAATCCACTATCTATCAGGCAGGCTCCGAATTCGTTTACGCCGCGGATTGAC (double strand) [RokL6-M2]
- binding result: binds more weakly
